Measurements reported in PubChem BioAssay AID493246 (Drosophila RNAi Screening Center, 2011).

- Assay: 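Identify essential fly genes by loss of cell viability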 (primary screen)
- Cell system: Drosophila Kc and S2R+ cells
- Knock-down reagent: long dsRNA against Drosophila genes
- Detection: 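Raw, unnormalised count of remaining cells in each well; per-plate z-scores of cell number underlie the calls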
- Reading the numbers: Kc cell number and S2R+ cell number: higher = more cells remaining
- Rule for the call: 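Active when the per-plate z-score of cell number is 3 or more in the direction of fewer cells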
The deposit covers about 21,000 reagents; below is an unselected part of those with a known target gene and a result. In the full data, 429 (2%) were called active. 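Values are raw and not normalised between plates; calls rest on per-plate z-scores that were not deposited.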 The numbers tell different reagents against one gene apart. A plus sign joins genes that one reagent is predicted to hit. Reagent sequences are not shown. The record does not give: the amount of reagent, the time to read-out.

target,reagent no.,"Kc cell number, rep 1","Kc cell number, rep 2","S2R+ cell number, rep 1","S2R+ cell number, rep 2",Call
Aprt (GeneID 48224),1,1.47e6,1.28e6,9.40e5,1.11e6,inactive
CG44251 (GeneID 36429),1,1.49e6,1.54e6,1.18e6,1.31e6,inactive
Alg11 (GeneID 40402),1,1.73e6,1.75e6,1.53e6,1.49e6,inactive
NT5E-2 (GeneID 246458),1,1.24e6,1.32e6,1.08e6,1.12e6,inactive
CG1909 (GeneID 43800),1,4.74e5,,8.93e5,,inactive
Rpn1 (GeneID 40174),1,8.53e5,9.78e5,7.53e5,8.24e5,active
pigeon (GeneID 35200),1,1.27e6,1.34e6,1.32e6,1.34e6,inactive
ppk12 (GeneID 37566),1,1.62e6,1.67e6,1.34e6,1.45e6,inactive
Mst77F (GeneID 40304),1,1.30e6,1.43e6,1.30e6,1.32e6,inactive
CG42788 (GeneID 41817),1,1.23e6,1.24e6,1.19e6,1.31e6,inactive
CG42788 (GeneID 41817),2,1.30e6,1.43e6,1.15e6,1.38e6,inactive
CG42788 (GeneID 41817),3,1.26e6,1.31e6,1.24e6,1.36e6,inactive
r + CG13012,1,1.47e6,1.49e6,1.08e6,1.11e6,inactive
PLCXD (GeneID 34623),1,1.42e6,1.45e6,1.03e6,1.12e6,inactive
iav (GeneID 31621),1,1.62e6,1.59e6,1.01e6,1.18e6,inactive
Osi5 (GeneID 40759),1,1.56e6,1.52e6,1.34e6,1.53e6,inactive
srw (GeneID 38525),1,1.54e6,1.38e6,1.11e6,1.50e6,inactive
CG6845 (GeneID 38019),1,1.61e6,1.50e6,1.14e6,1.17e6,inactive
CG8229 (GeneID 35898),1,1.36e6,1.45e6,1.10e6,1.16e6,inactive
Galk (GeneID 39031),1,1.29e6,1.37e6,1.22e6,1.20e6,inactive
CG3631 (GeneID 41797),1,1.78e6,1.98e6,1.49e6,1.54e6,inactive
Osi22 (GeneID 41632),1,1.52e6,1.59e6,1.22e6,1.32e6,inactive
CG42518 + MED9,1,1.52e6,1.61e6,1.13e6,1.20e6,inactive
CCHa1 (GeneID 41711),1,1.43e6,1.56e6,7.65e5,8.35e5,inactive
